In patent US20230287060, “PROTEINS AND THEIR USE FOR NUCLEOTIDE BINDING” (The University of Western Australia, published 2023):
Protein sequences can lack the tags named with them.

How the values were obtained:
[1] = tested on: T1, cPPR-Telo2 (synthetic construct); test: inhibition of the protein; settings: 5'-biotin, purified recombinant protein, protein details: GST and His tags (pETM30, E. coli), single-stranded DNA
T1 sequence: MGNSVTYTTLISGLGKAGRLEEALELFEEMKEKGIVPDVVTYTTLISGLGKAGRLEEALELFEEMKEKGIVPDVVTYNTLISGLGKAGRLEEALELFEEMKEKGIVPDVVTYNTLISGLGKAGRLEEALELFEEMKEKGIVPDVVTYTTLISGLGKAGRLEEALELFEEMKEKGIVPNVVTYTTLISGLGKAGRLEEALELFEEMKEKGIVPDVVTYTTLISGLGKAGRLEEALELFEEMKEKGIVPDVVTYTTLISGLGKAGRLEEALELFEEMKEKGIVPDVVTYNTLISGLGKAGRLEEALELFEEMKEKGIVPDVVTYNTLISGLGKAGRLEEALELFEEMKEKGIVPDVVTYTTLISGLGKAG

[2] = tested on: T2, cPPR-Telo1 (synthetic construct); test: inhibition of the protein; settings: 5'-biotin; blocks telomerase extension dose-dependently, 50-300 nM protein; maintained with excess competitor ssDNA; purified recombinant protein; protein details: GST and His tags (pETM30, E. coli); single-stranded DNA
T2 sequence: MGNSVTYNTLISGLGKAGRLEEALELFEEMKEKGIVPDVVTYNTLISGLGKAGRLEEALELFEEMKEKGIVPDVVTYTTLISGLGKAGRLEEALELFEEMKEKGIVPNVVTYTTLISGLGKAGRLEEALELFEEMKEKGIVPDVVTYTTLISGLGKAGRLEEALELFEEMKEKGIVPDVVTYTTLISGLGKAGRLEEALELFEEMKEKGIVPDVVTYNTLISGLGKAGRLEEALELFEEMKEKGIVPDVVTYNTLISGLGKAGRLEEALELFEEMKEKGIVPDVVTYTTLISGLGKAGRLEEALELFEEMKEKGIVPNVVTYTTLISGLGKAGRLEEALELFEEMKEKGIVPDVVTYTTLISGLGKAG

[3] = blocks telomerase extension, 200-300 nM protein

Sequence	activity on this sequence [1, 3]	activity on this sequence [2]	activity on this sequence ([1]; blocks telomerase extension dose-dependently, 50-300 nM protein)
CTAGACCTGTCATCATTAGGGTTAGGGTT [Telo 14 primer]	active		
CTAGACCTGTCATCATTAGGGTTAGGGTTAG [Telo 16 primer]	active		
CTAGACCTGTCATCATTAGGGTTAGGGTTAGGG [Telo 18 primer]		active	active
CTAGACCTGTCATCATTAGGGTTAGGGTTAGGGTT [Telo 20 primer]	active		
